The chains behind the UniProt entries cited, without tags or fusion partners. Residues count along the entry.
UniProt Q96T25, 418-552: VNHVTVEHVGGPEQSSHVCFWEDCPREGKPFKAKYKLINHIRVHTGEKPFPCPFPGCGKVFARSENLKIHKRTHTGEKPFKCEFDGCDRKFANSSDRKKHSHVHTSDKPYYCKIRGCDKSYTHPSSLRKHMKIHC

In patent publication US20190062751:

Target: ZIC5 zinc finger domain (GST-ZIC5 ZF) (Homo sapiens) (UniProt Q96T25)
Assay: EMSA
Details: 40 mM Tris-HCl pH 8.0, 7 mM MgCl2, 90 mM NaCl, poly(dI-dC), purified recombinant protein, protein details: GST N-terminal fusion (pGEX-6P), E. coli BL21, label: biotin

## TCAGCCAATCAGCGGTACGGGGGGCGGTGCCTCCG (double strand) [pCDH1 probe (E-cadherin promoter)]
  binding result: binds

## GATCCTGTGATTTTCGTCTTGGGTGGTCTCCCTCG (double strand) [GBS probe (Gli binding sequence)]
  binding result: binds

## GATCCTGTGATTTTCGTCTTGGGTGATCTCCCTCG (double strand) [M5 probe]
Variant of GBS probe (Gli binding sequence)
  binding result: no binding

For at least one entry, the source does not settle the construct or the ends of the probe. A negative result means that nothing was seen under these conditions.
